According to patent US20100113513A1, “QUINOLINE DERIVATIVES AS FUNGICIDES” (SYNGENTA CROP PROTECTION, INC., priority 2007, published 2010):
Some of these results come from one statement about several compounds together. At least one compound was matched to its structure with a doubt left.

Legend:
[1] = tested on: Erysiphe graminis f.sp. tritici; experiment: Erysiphe graminis f.sp. tritici (wheat powdery mildew) wheat leaf segment test, preventive; type: in vivo; conditions: 200 ppm; wheat leaf segments; assessed four days after inoculation
Septoria tritici = Septoria tritici (leaf blotch) growth inhibition in nutrient broth, photometric; type: cell-based; conditions: 200 ppm, 24 C, inhibition of growth after 72 hrs
Plasmopara viticola = Plasmopara viticola (downy mildew of grapevine) grapevine leaf disk test, preventive; type: in vivo; conditions: 200 ppm; grapevine leaf disks; assessed seven days after inoculation
Botrytis cinerea = Botrytis cinerea (grey mould) bean leaf disk test, preventive; type: in vivo; conditions: 200 ppm; bean leaf disks; assessed four days after inoculation

Row | Compound | control of fungal infection, Erysiphe graminis f.sp. tritici [1] | control of fungal infection, Septoria tritici (Septoria tritici) | control of fungal infection, Plasmopara viticola (Plasmopara viticola) | control of fungal infection, Botrytis cinerea (Botrytis cinerea)
1 | COC(Oc1ccc2ncc(Br)cc2c1)C(=O)NC(C)(C)C (racemic) [1 (161)] | ≥ 60% | ≥ 60% | ≥ 60% | –
2 | CCC(Oc1cc(C)c2ncc(I)cc2c1)C(=O)NC(C)(C)C(=O)Cc1ccccn1 (racemic) [64 (162)] | ≥ 60% | ≥ 60% | ≥ 60% | –
3 | CCC(Oc1cc(C)c2ncc(I)cc2c1)C(=O)NC(C)(C)CO (racemic) [77 (161)] | ≥ 60% | – | ≥ 60% | –
4 | C#CCC(C)(C)NC(=O)C(CC)Oc1cc(C)c2ncc(I)cc2c1 (racemic) [85 (118)] | ≥ 60% | ≥ 60% | ≥ 60% | –
5 | CCOC(Oc1ccc2ncc(Br)cc2c1)C(=O)NC(C)(C)C (stereo not shown) [2 (161)] | ≥ 60% | ≥ 60% | ≥ 60% | –
6 | CCC(Oc1cc(C)c2ncc(I)cc2c1)C(=O)NC1CC1 (stereo not shown) [4 (162)] | – | ≥ 60% | – | ≥ 60%
7 | COCC(C)(C#N)NC(=O)C(OC)Oc1cc(C)c2ncc(Br)cc2c1 (stereo not shown) [24 (161)] | – | – | – | ≥ 60%
8 | COC(Oc1ccc2ncc(I)cc2c1)C(=O)NC(C)(C)C=O (stereo not shown) [34 (161)] | ≥ 60% | – | ≥ 60% | –
9 | CCC(Oc1ccc2ncc(Br)cc2c1)C(=O)NC(C)(C)COC (stereo not shown) [44 (161)] | ≥ 60% | – | ≥ 60% | –
10 | CCC(Oc1cc(C)c2ncc(I)cc2c1)C(=O)NC(C)(C)COC (stereo not shown) [47 (118)] | ≥ 60% | ≥ 60% | ≥ 60% | –
11 | CCC(Oc1cc(C)c2ncc(I)cc2c1)C(=O)NC(C)(C#N)COC (stereo not shown) [52 (118)] | ≥ 60% | ≥ 60% | ≥ 60% | –
12 | CCC(Oc1cc(Cl)c2ncc(Br)cc2c1)C(=O)NC(C)(C)C (stereo not shown) [53 (161)] | – | – | – | ≥ 60%
13 | CCC(Oc1cc(Cl)c2ncc(Br)cc2c1)C(=O)NC(C)(C)COC (stereo not shown) [54 (161)] | – | ≥ 60% | – | ≥ 60%
14 | CCC(Oc1cc(C)c2ncc(I)cc2c1)C(=O)NC(C)(C)CCS(C)(=O)=O (stereo not shown) [70 (161)] | ≥ 60% | ≥ 60% | ≥ 60% | –
15 | C#CCC(C)(C)NC(=O)C(CC)Oc1cc(C)c2ncc(I)cc2c1 (stereo not shown) [72 (161)] | – | – | – | ≥ 60%
16 | CCC(Oc1cc(C)c2ncc(I)cc2c1)C(=O)NC(C)(C)CCS(C)(=O)=Nc1ccc(Cl)cc1 (stereo not shown) [81 (161)] | – | ≥ 60% | – | ≥ 60%
17 | CCC(Oc1ccc2ncc(I)cc2c1)C(=O)NC(C)c1ccc(Br)cc1 (stereo not shown) [150 (162)] | – | – | – | ≥ 60%
18 | CCC(Oc1ccc2ncc(I)cc2c1)C(=O)NC(C)c1ccc(Cl)cc1 (stereo not shown) [155 (162)] | – | ≥ 60% | – | ≥ 60%
19 | CCC(Oc1ccc2ncc(I)cc2c1)C(=O)NC(C)(C)CCc1cccc(C(F)(F)F)c1 (stereo not shown) [169 (162)] | – | – | – | ≥ 60%
20 | CCC(Oc1ccc2ncc(I)cc2c1)C(=O)NC(C(=O)OC)C(C)C (stereo not shown) [174 (162)] | – | – | – | ≥ 60%
21 | CCC(Oc1ccc2ncc(I)cc2c1)C(=O)NC(C)(C)c1cccc(C(F)(F)F)c1 (stereo not shown) [176 (162)] | – | – | – | ≥ 60%
22 | CCC(Oc1ccc2ncc(Br)cc2c1)C(=O)NC1CCCC1(F)F (stereo not shown) [246 (162)] | – | – | – | ≥ 60%
